We go through 35 targets from the supplement of paper PMC10849652.

Amino acid sequences for entries named in this document (tags omitted). A change or cut given only in a name is not applied to a line headed by its entry.
UniProt Q9BTX7: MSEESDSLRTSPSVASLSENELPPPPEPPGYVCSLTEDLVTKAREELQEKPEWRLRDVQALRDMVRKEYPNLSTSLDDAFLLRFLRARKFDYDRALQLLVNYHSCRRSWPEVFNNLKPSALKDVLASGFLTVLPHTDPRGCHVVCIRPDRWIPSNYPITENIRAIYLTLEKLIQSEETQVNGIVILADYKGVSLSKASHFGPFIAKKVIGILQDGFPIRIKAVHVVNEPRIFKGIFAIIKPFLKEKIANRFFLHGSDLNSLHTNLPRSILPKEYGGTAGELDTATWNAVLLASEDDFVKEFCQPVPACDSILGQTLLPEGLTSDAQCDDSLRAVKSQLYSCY
UniProt Q13509, whole entry, looked up: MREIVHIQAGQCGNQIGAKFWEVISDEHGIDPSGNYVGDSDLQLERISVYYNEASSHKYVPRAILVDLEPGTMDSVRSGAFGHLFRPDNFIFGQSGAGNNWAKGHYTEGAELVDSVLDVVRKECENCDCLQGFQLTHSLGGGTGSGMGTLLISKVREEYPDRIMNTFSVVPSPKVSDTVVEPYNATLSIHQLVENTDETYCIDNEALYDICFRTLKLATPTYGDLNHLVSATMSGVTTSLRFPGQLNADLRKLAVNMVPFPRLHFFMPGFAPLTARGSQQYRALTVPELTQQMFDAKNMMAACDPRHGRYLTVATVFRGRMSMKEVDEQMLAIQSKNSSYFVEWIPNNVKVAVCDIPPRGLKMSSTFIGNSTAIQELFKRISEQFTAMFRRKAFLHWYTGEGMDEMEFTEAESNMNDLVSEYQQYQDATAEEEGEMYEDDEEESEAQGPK
UniProt Q6IPR3: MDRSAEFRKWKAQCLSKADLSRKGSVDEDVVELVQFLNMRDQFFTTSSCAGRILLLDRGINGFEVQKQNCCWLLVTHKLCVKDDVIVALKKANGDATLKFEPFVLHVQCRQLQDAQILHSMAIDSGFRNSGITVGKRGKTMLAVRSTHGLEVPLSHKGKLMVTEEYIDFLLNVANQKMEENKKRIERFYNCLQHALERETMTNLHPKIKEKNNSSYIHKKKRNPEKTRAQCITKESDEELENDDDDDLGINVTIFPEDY
UniProt O43396: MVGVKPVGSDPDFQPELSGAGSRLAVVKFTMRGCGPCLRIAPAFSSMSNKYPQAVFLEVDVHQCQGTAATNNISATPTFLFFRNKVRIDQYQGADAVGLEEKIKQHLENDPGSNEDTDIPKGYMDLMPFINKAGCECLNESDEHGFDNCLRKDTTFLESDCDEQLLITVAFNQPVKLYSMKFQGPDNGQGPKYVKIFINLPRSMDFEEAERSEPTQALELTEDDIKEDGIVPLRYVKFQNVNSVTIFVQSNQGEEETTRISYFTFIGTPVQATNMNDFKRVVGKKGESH
UniProt Q5T6F2: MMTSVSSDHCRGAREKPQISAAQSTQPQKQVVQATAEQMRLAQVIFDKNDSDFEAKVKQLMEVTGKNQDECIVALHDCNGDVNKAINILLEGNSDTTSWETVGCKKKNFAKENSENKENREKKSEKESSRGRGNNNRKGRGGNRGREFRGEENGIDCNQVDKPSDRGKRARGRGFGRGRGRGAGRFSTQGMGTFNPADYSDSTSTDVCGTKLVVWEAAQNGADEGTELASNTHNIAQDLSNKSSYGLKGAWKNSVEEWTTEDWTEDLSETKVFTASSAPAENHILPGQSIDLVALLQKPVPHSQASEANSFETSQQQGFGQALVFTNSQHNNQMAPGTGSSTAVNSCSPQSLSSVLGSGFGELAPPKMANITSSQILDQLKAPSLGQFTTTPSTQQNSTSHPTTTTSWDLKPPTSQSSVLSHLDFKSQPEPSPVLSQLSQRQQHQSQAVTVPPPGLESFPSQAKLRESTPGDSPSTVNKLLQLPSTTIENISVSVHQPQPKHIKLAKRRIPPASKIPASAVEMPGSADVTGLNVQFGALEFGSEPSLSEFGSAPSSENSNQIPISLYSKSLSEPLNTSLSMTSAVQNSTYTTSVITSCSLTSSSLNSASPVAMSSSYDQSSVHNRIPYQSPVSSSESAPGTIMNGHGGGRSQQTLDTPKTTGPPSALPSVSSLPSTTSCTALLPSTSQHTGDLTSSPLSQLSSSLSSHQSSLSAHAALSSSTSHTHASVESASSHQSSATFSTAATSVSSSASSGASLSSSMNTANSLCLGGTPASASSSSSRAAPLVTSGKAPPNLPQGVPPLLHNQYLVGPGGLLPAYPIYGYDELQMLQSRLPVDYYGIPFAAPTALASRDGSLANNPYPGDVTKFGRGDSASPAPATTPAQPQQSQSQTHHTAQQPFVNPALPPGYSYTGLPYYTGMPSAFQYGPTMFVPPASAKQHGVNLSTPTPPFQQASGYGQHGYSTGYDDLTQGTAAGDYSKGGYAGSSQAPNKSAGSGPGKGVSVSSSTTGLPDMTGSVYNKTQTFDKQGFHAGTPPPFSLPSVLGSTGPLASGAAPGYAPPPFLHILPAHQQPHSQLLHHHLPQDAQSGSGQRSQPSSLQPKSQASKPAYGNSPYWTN
UniProt Q7Z7E8: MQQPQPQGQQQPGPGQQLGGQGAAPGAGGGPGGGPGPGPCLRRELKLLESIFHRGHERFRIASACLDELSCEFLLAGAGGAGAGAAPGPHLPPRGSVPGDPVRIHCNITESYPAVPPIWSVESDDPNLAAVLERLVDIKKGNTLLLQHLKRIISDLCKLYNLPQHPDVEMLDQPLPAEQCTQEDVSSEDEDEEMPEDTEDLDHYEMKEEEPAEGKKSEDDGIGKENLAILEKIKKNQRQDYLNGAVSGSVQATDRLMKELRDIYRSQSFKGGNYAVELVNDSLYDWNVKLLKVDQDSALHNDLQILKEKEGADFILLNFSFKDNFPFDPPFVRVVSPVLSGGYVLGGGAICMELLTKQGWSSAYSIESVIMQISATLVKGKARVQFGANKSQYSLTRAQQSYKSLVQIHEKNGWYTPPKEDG
UniProt Q5JXB2: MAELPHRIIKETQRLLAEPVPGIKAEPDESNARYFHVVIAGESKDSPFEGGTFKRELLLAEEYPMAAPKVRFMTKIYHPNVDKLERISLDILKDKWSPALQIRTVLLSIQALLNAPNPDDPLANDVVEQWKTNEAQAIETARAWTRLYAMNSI
UniProt Q5TAX3: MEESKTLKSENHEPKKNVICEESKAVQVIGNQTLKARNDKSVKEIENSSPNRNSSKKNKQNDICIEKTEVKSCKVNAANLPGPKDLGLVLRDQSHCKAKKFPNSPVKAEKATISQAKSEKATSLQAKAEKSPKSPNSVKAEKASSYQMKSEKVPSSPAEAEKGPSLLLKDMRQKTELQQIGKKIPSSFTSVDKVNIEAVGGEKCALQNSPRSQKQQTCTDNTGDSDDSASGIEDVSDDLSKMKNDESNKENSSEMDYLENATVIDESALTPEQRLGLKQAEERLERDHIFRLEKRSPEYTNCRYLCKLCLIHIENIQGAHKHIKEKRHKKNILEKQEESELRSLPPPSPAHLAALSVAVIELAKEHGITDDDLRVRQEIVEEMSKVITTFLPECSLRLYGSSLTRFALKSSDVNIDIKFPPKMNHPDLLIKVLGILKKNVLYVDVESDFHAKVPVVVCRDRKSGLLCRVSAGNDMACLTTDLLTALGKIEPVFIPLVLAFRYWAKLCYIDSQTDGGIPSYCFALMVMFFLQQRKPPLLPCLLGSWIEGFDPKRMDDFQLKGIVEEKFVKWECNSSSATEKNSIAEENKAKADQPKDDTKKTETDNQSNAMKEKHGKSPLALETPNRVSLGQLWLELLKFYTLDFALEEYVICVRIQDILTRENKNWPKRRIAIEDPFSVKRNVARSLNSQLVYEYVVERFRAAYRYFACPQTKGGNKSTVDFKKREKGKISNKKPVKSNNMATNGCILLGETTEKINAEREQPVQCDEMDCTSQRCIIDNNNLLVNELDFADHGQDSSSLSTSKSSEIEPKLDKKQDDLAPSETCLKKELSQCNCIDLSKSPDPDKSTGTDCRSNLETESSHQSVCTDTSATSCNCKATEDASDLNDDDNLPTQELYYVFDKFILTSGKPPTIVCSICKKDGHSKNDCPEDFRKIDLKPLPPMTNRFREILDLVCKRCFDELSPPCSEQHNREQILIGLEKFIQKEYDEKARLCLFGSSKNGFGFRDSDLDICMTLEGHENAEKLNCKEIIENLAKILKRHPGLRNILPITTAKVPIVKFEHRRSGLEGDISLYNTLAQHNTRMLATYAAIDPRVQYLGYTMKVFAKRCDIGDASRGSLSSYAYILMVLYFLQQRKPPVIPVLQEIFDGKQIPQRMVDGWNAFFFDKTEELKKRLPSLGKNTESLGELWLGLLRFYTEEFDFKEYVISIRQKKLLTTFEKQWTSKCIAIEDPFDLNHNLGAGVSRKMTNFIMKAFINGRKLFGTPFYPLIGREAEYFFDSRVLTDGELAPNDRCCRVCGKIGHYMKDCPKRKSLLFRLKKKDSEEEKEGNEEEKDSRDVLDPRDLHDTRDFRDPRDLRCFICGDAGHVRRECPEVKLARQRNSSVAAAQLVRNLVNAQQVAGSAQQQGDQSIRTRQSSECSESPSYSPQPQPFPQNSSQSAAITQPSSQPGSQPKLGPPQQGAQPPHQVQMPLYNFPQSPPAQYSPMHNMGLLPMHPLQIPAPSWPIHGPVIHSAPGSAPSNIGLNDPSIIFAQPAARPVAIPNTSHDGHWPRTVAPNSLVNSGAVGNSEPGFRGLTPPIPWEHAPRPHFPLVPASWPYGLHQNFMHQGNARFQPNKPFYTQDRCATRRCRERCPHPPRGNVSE
UniProt P04818: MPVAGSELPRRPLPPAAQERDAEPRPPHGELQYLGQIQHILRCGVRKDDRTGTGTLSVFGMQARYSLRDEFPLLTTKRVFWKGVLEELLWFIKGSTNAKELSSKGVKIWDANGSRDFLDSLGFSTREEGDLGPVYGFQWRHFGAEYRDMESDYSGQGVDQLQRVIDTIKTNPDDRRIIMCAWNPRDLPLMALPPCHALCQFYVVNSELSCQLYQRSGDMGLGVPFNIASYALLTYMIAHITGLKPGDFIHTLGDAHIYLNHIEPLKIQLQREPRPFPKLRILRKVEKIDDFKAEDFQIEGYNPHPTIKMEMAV
UniProt Q12792, whole entry, looked up: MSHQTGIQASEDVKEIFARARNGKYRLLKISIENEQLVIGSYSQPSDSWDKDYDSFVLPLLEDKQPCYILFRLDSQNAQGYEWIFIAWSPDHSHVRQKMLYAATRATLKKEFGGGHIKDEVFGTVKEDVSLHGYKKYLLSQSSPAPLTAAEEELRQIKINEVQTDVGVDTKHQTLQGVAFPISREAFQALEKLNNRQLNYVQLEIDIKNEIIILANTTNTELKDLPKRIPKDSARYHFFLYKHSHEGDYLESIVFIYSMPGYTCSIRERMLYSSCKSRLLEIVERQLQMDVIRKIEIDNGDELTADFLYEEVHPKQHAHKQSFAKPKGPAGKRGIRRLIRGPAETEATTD
UniProt P62253: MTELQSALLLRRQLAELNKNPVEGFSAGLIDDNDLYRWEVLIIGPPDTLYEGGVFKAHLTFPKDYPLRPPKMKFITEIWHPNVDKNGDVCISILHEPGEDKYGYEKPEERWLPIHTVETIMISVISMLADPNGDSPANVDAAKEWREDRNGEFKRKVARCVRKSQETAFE
UniProt Q9NZI7: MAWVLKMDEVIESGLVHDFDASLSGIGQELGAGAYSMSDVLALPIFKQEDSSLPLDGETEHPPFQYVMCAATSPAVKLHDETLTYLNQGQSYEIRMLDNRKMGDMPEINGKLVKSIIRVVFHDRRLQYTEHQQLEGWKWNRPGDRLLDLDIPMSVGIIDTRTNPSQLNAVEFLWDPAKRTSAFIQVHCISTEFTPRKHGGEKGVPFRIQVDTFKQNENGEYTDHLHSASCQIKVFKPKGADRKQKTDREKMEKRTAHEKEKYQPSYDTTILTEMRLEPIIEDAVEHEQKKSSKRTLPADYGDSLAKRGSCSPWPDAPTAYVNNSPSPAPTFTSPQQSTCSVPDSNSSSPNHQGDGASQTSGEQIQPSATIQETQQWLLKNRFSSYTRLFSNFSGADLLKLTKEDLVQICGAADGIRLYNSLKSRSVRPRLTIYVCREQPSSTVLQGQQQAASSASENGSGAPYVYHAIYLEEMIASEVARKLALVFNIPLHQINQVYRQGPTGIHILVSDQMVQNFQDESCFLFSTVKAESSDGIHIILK
UniProt P26368, whole entry, looked up: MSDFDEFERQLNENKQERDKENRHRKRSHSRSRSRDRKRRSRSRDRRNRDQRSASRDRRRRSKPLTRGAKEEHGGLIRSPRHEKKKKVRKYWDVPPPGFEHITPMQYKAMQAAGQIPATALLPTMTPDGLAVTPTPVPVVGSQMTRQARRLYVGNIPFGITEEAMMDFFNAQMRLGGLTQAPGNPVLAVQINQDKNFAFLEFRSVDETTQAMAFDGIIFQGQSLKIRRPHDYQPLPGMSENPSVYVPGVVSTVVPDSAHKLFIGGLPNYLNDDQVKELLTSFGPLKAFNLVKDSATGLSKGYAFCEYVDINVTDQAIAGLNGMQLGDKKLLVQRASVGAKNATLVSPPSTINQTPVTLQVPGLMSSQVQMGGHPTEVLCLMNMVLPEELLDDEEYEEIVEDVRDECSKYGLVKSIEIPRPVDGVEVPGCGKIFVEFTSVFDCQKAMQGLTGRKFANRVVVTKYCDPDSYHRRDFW

The list shows a part of the results.

Compound in the first experiment: CCCS(=O)(=O)Nc1ccc(F)c(C(=O)c2c[nH]c3ncc(-c4ccc(Cl)cc4)cc23)c1F [vemurafenib]
The experiment in a line: log2 fold change, soluble protein after heating vs DMSO (PISA); higher = thermal stabilisation; K562 lysate, 10 uM; active = over 0.2 and 3.5 SD of the protein, either way, in both replicates (recomputed). A digest of the protocol:
(§1)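 Pellets of K562 cells were dounce-homogenised in PBS pH 7.4 with 1 mM MgCl2, and the crude extract was held at 1 mg/mL protein for a 30 min treatment with 10 μM compound. Aliquots were heated for 3 min over 48°C-58°C and pooled before NP-40 was added to 0.5% at 4°C. The supernatant from 21,000xg for 90 min was quantified by TMTpro 16plex LC-MS/MS with channel sums equalised. Values are reported from duplicates as log-two fold change in thermal stability relative to solvent controls.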
Regarding TTPAL (UniProt Q9BTX7), the log2 fold change is inactive: 0.017.

Consider TUBB3 (UniProt Q13509), for which the log2 fold change was inactive: -0.004.

Consider TYW3 (UniProt Q6IPR3), for which the log2 fold change was inactive: 0.024.

With TXNL1 (UniProt O43396), the log2 fold change was inactive: -0.005.

With UBAP2 (UniProt Q5T6F2), the log2 fold change is inactive: 0.009.

Take UBE2Q1 (UniProt Q7Z7E8): the log2 fold change was inactive: 0.

With UBR3 isoform 4 (UniProt Q6ZT12), the log2 fold change is inactive: 0.035.

In the case of UBE2NL (UniProt Q5JXB2), the log2 fold change is inactive: -0.016.

As for TUT4 (UniProt Q5TAX3), the log2 fold change was inactive: 0.091.

Take TYMS (UniProt P04818): the log2 fold change was inactive: -0.009.

Consider TWF1 (UniProt Q12792), for which the log2 fold change is inactive: 0.01.

Compound in the next experiment: CCCS(=O)(=O)Nc1ccc(F)c(C(=O)c2c[nH]c3ncc(Cl)cc23)c1F
The experiment is described as above. A digest of the protocol: as §1
Consider TXNDC9 (UniProt O14530), for which the log2 fold change is inactive: -0.008.

Turning to UBE2G1 (UniProt P62253), the log2 fold change was inactive: -0.01.

Regarding TUBE1 (UniProt Q9UJT0), the log2 fold change was inactive: 0.012.

Turning to UBP1 (UniProt Q9NZI7), the log2 fold change was inactive: 0.117.

As to UCK1 isoform 4 (UniProt Q9HA47), the log2 fold change is inactive: -0.01.

Take TUBA1B (UniProt P68363): the log2 fold change is inactive: 0.

As to UBFD1 (UniProt O14562), the log2 fold change was inactive: 0.004.

In the case of UBQLN2 (UniProt Q9UHD9), the log2 fold change is inactive: 0.004.

Consider UBE2O (UniProt Q9C0C9), for which the log2 fold change was inactive: 0.018.

For the target UBA6, the log2 fold change was inactive: -0.002.

Take UBE2T (UniProt Q9NPD8): the log2 fold change was inactive: 0.019.

As to UBE2I (UniProt P63279), the log2 fold change was inactive: -0.007.

For the target TUSC3 isoform 2 (UniProt Q13454), the log2 fold change is inactive: 0.01.

For UBR5 (UniProt O95071), the log2 fold change is inactive: 0.035.

UBE2H (UniProt P62256): the log2 fold change was inactive: -0.013.

On to UBXN6 (UniProt Q9BZV1), for which the log2 fold change is inactive: -0.192.

Consider U2AF2 (UniProt P26368), for which the log2 fold change was inactive: 0.01.

As to UBE2Z (UniProt Q9H832), the log2 fold change is inactive: 0.011.

For the target UBXN4 (UniProt Q92575), the log2 fold change is inactive: 0.004.

In the case of UAP1L1 (UniProt Q3KQV9), the log2 fold change was inactive: -0.014.

Regarding UBR2 isoform 4 (UniProt Q8IWV8), the log2 fold change is inactive: 0.016.

Turning to UBXN10 (UniProt Q96LJ8), the log2 fold change was inactive: -0.089.

Consider UBE2A (UniProt P49459), for which the log2 fold change is inactive: -0.007.

Turning to U2SURP (UniProt O15042), the log2 fold change is inactive: 0.034.

On to TTPAL (UniProt Q9BTX7), for which the log2 fold change was inactive: 0.

As to TUBB3 (UniProt Q13509), the log2 fold change was inactive: 0.018.

Consider TYW3 (UniProt Q6IPR3), for which the log2 fold change is inactive: 0.017.

For TXNL1 (UniProt O43396), the log2 fold change is inactive: 0.006.

UBAP2 (UniProt Q5T6F2): the log2 fold change is inactive: 0.016.

On to UBE2Q1 (UniProt Q7Z7E8), for which the log2 fold change is inactive: 0.03.

With UBR3 isoform 4 (UniProt Q6ZT12), the log2 fold change was inactive: -0.001.

As for UBE2NL (UniProt Q5JXB2), the log2 fold change is inactive: -0.035.

In the case of TUT4 (UniProt Q5TAX3), the log2 fold change is inactive: -0.007.

Regarding TYMS (UniProt P04818), the log2 fold change was inactive: 0.006.

Turning to TWF1 (UniProt Q12792), the log2 fold change is inactive: -0.008.

Compound in a further experiment: CCN(CCCOc1ccc2c(Nc3cc(CC(=O)Nc4cccc(F)c4)[nH]n3)ncnc2c1)CCOP(=O)(O)O [barasertib]
The description is as above. A digest of the protocol: as §1
Take TXNDC9 (UniProt O14530): the log2 fold change is inactive: 0.007.

On to UBE2G1 (UniProt P62253), for which the log2 fold change was inactive: -0.048.

Turning to TUBE1 (UniProt Q9UJT0), the log2 fold change was inactive: 0.03.

Turning to UBP1 (UniProt Q9NZI7), the log2 fold change was inactive: 0.008.

Regarding UCK1 isoform 4 (UniProt Q9HA47), the log2 fold change was inactive: 0.138.

With TUBA1B (UniProt P68363), the log2 fold change is inactive: 0.013.

Take UBFD1 (UniProt O14562): the log2 fold change is inactive: -0.007.

With UBQLN2 (UniProt Q9UHD9), the log2 fold change was inactive: 0.315.

UBE2O (UniProt Q9C0C9): the log2 fold change was inactive: 0.

As to UBA6, the log2 fold change is inactive: 0.051.

For UBE2T (UniProt Q9NPD8), the log2 fold change is inactive: 0.054.

As to UBE2I (UniProt P63279), the log2 fold change was inactive: -0.006.

Consider TUSC3 isoform 2 (UniProt Q13454), for which the log2 fold change is inactive: 0.053.

Turning to UBR5 (UniProt O95071), the log2 fold change was inactive: 0.045.

For the target UBE2H (UniProt P62256), the log2 fold change is inactive: -0.006.

Regarding UBXN6 (UniProt Q9BZV1), the log2 fold change was inactive: -0.007.

Turning to U2AF2 (UniProt P26368), the log2 fold change was inactive: 0.002.

On to UBE2Z (UniProt Q9H832), for which the log2 fold change is inactive: 0.022.

UBXN4 (UniProt Q92575): the log2 fold change was inactive: -0.024.

With UAP1L1 (UniProt Q3KQV9), the log2 fold change is inactive: 0.024.

For the target UBR2 isoform 4 (UniProt Q8IWV8), the log2 fold change was inactive: 0.063.

Turning to UBXN10 (UniProt Q96LJ8), the log2 fold change was inactive: -0.133.

For UBE2A (UniProt P49459), the log2 fold change was inactive: 0.029.

Take U2SURP (UniProt O15042): the log2 fold change is inactive: -0.014.

As to TTPAL (UniProt Q9BTX7), the log2 fold change is inactive: 0.027.

In the case of TUBB3 (UniProt Q13509), the log2 fold change was inactive: -0.042.

As for TYW3 (UniProt Q6IPR3), the log2 fold change was inactive: 0.017.

Consider TXNL1 (UniProt O43396), for which the log2 fold change is inactive: -0.011.

Turning to UBAP2 (UniProt Q5T6F2), the log2 fold change was inactive: -0.007.

For the target UBE2Q1 (UniProt Q7Z7E8), the log2 fold change is inactive: -0.005.

For UBR3 isoform 4 (UniProt Q6ZT12), the log2 fold change is inactive: 0.026.

For UBE2NL (UniProt Q5JXB2), the log2 fold change is inactive: 0.083.

Consider TUT4 (UniProt Q5TAX3), for which the log2 fold change is inactive: 0.024.

As to TYMS (UniProt P04818), the log2 fold change is inactive: 0.022.

For the target TWF1 (UniProt Q12792), the log2 fold change was inactive: -0.032.
